No constants are given. Whether binding was seen depends on the method and setting. In cells and extracts the contact can be indirect. Some binding calls cover weakened binding; strength is not graded here.
How the values were obtained:
[1] = target: cyclic GMP-AMP synthase (cGAS) (human (endogenous in AGS)) (UniProt Q8N884); assay: co-IP; endogenous proteins of AGS cells, mild lysis; anti-cGAS or anti-NBN antibody on protein A/G magnetic beads, incubated with lysate overnight at 4°C; IgG as negative control; detection by immunoblotting
[2] = target: NBN (human (endogenous in AGS)) (UniProt O60934); assay: as above

Sequences of proteins named here, by UniProt entry; tags and fusion partners are left off.
UniProt Q8N884: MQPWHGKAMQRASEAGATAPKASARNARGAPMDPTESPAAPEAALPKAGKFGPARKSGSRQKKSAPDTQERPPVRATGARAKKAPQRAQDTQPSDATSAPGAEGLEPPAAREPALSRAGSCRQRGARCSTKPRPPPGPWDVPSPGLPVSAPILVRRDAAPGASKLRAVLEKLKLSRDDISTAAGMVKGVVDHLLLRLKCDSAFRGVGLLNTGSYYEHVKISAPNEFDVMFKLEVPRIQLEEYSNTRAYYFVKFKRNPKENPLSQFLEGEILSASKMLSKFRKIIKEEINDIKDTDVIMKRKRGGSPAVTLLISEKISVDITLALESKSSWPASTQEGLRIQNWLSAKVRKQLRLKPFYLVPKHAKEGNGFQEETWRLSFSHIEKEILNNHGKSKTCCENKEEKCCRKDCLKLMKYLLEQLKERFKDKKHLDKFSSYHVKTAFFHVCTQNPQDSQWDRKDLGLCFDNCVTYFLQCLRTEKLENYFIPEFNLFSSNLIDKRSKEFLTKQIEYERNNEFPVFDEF
UniProt O60934: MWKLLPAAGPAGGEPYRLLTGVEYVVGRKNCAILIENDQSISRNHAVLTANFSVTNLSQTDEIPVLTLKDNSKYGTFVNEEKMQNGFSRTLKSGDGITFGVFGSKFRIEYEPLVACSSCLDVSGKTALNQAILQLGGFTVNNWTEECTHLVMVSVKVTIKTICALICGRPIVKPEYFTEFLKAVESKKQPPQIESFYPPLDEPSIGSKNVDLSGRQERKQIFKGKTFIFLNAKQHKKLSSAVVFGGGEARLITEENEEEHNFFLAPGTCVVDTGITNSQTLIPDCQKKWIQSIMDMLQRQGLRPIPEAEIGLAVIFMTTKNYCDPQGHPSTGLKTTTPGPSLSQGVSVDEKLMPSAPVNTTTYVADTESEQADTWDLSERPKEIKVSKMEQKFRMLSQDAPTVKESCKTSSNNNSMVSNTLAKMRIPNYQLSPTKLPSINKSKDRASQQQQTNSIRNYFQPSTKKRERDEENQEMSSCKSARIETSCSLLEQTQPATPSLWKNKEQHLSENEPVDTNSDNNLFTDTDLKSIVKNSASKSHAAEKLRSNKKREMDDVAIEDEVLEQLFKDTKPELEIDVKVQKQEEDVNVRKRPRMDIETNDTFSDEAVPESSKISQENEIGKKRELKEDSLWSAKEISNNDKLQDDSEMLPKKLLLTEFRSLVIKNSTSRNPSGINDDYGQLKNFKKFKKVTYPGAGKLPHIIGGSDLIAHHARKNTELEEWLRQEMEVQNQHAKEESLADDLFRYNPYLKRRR

Substance	binding [1]	binding [2]
NBN (from UniProt O60934 1-754)	binds	–
cyclic GMP-AMP synthase (cGAS) (from UniProt Q8N884 1-522)	–	binds

Source: PMC10208015
